Some of the results follow. Residues, ends and D or L forms follow the SMILES beside them. *: point of attachment. Cbz = O=C(OCc1ccccc1)*
Key:
Assay in all cases: log2 fold change, soluble protein after heating vs DMSO (PISA); higher = thermal stabilisation; K562 cells, 10 uM, 30 min; active = over 0.2 and 3.5 SD of the protein, either way, in both replicates (recomputed)
IRAK-1-4 Inhibitor I = compound: C1COCCN1CCN2C3=CC=CC=C3N=C2NC(=O)C4=CC(=CC=C4)[N+](=O)[O-] [IRAK-1-4 Inhibitor I]
Procedure, shortened: (§1)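 Quantification of soluble protein used TMTpro 16plex LC-MS/MS, with channel sums equalised. Samples were the supernatant after 21,000xg for 90 min of pooled aliquots from K562 cells (2×10^6 cells/mL) treated with 10 μM compound for 30 min, heated for 3 min over 48°C-58°C, and extracted in PBS with 0.5% NP-40 at 4°C. Values, from duplicates, describe thermal stability against control samples on a log2 fold-change scale.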

Chains of the proteins cited; added tags and fusions are not shown. Lines headed by an entry give the natural chain unless they say otherwise; changes in a name come on top.
UniProt O75791: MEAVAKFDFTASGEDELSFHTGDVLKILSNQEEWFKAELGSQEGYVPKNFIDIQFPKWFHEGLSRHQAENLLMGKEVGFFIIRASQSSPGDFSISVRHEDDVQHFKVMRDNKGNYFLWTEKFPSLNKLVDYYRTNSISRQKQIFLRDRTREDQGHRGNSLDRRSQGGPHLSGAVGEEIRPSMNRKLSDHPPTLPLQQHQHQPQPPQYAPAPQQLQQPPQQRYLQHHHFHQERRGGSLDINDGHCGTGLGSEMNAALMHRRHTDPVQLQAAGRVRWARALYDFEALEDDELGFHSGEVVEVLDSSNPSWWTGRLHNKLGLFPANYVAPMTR
UniProt Q9NS18: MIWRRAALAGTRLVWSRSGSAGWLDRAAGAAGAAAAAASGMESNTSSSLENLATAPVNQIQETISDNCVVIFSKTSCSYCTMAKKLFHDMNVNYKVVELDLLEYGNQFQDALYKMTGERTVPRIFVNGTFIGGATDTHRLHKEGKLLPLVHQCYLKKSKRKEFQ
UniProt Q92917: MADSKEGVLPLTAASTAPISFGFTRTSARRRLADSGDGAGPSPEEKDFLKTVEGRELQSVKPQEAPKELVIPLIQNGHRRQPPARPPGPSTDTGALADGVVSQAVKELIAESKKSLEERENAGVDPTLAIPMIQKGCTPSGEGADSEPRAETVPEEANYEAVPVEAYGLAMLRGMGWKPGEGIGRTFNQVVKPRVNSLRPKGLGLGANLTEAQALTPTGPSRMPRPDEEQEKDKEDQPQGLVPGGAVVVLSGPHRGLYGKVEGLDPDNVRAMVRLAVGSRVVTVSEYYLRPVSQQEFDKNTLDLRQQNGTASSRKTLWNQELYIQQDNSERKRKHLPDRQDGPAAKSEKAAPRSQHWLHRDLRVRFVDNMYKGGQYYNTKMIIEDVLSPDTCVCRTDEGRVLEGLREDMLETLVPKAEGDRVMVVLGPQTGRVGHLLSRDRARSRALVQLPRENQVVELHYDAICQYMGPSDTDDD
UniProt Q53EU6: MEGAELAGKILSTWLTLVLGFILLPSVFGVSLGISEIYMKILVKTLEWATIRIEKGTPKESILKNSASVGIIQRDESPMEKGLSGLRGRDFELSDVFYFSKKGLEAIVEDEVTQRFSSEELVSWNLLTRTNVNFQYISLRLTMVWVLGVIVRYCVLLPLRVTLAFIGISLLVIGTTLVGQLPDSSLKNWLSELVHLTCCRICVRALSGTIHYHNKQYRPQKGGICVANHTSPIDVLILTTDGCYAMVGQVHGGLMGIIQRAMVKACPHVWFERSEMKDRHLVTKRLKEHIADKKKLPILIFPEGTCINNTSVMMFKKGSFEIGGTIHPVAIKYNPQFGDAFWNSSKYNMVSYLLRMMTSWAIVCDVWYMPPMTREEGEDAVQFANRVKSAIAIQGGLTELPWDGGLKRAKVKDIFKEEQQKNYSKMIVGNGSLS
UniProt Q4V328: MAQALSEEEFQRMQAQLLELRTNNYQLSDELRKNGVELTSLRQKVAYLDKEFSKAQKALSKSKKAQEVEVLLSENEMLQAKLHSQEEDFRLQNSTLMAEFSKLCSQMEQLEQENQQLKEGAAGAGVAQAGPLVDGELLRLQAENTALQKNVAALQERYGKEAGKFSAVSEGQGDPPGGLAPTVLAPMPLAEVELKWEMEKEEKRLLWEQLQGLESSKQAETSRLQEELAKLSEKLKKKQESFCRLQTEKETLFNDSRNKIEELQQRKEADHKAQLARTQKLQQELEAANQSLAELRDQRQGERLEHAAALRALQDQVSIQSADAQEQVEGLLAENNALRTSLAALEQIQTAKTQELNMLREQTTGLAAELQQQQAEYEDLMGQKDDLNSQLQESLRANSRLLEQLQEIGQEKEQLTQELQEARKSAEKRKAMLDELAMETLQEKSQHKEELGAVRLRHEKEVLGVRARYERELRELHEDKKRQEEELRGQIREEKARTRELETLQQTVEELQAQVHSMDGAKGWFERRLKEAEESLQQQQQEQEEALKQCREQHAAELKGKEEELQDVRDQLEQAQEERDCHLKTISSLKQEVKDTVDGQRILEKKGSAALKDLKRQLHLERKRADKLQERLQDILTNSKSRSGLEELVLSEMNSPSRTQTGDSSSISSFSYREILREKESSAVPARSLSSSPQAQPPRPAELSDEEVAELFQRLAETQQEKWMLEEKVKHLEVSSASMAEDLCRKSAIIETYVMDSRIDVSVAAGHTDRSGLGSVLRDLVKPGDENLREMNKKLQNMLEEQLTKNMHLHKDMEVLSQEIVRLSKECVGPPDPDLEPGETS
UniProt Q9P2T1: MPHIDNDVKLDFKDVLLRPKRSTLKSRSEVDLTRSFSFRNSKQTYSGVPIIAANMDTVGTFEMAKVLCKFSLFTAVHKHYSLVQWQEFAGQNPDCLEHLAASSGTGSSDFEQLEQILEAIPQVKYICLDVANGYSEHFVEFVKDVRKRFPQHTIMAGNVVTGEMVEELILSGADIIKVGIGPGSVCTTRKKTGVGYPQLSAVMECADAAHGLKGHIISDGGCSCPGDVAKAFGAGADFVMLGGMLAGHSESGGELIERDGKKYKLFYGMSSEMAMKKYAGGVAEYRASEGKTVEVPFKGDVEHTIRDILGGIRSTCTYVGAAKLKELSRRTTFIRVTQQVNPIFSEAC
UniProt P28799: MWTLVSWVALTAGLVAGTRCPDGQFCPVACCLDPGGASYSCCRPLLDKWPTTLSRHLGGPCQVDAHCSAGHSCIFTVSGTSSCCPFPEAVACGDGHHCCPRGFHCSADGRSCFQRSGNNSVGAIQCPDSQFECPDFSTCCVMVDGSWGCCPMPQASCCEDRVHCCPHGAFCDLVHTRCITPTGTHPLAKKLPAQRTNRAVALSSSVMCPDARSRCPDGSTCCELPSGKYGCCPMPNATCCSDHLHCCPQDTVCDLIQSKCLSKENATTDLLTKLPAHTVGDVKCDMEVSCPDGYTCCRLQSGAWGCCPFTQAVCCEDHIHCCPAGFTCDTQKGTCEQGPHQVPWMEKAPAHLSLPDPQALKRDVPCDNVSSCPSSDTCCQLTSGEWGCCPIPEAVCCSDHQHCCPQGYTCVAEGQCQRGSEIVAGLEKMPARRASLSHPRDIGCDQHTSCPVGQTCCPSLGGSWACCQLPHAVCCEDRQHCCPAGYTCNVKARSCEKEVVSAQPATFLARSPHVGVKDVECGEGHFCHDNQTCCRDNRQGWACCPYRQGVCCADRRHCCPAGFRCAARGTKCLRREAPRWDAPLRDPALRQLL
UniProt P04899, whole entry, looked up: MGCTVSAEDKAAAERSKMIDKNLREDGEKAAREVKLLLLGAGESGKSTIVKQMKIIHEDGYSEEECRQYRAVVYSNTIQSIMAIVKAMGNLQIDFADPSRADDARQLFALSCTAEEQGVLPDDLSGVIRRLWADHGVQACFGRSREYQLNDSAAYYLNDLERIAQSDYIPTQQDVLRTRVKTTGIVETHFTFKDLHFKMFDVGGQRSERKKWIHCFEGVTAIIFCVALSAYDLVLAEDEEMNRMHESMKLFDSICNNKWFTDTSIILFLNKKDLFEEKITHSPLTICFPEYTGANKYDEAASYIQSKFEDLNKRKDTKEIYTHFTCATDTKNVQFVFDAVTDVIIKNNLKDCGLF
UniProt P32189: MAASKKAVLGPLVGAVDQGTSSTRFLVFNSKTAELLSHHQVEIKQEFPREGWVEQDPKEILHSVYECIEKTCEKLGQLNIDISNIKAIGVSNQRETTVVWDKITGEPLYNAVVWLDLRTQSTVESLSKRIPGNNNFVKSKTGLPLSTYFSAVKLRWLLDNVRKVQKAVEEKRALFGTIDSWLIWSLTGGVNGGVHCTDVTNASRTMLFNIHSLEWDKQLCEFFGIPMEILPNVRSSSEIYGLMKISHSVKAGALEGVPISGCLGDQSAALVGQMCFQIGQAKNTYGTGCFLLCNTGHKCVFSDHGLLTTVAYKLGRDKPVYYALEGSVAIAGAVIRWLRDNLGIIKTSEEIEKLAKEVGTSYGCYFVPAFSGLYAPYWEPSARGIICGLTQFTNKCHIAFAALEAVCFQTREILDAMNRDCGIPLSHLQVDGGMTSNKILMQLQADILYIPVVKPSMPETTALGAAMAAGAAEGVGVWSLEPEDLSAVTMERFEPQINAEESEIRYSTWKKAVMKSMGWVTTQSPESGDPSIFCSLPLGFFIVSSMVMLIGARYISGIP
UniProt Q9HAV0, whole entry, looked up: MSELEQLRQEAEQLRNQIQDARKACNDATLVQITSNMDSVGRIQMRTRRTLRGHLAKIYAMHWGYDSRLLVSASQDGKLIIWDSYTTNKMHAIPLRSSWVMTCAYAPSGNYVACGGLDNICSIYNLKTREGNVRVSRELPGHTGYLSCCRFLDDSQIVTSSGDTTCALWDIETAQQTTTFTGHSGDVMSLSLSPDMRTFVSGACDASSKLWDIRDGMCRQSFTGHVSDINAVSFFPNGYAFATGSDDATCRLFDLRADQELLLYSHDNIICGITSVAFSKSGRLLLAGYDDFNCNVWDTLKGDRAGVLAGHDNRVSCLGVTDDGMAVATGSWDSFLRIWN
UniProt O00461: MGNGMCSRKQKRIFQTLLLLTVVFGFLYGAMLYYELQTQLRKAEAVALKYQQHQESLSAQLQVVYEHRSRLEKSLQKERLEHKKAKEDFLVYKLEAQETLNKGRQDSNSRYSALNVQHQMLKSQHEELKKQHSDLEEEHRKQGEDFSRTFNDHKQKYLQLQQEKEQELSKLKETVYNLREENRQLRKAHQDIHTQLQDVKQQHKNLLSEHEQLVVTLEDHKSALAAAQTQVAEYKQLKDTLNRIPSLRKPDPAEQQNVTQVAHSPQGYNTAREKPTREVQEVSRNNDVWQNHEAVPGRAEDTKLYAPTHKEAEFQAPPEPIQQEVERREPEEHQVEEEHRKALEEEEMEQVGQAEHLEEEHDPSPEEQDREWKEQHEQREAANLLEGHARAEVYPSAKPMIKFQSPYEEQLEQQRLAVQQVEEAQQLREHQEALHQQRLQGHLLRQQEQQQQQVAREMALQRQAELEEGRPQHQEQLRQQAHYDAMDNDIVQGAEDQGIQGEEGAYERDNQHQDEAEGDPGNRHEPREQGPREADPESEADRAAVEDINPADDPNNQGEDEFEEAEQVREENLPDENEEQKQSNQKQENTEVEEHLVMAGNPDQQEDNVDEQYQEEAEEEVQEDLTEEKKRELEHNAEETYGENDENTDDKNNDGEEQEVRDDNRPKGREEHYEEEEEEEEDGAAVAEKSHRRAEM
UniProt Q14344, whole entry, looked up: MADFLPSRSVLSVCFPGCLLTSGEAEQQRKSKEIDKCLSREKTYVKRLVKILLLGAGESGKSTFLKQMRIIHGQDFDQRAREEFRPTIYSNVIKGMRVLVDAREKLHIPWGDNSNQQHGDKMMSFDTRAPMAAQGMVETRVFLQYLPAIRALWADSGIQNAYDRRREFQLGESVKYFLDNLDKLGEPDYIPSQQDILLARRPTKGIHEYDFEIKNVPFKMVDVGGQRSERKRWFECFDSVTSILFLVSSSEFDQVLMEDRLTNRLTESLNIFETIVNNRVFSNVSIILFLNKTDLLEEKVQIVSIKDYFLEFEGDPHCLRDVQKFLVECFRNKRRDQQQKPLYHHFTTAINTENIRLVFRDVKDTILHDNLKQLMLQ
UniProt Q9Y223: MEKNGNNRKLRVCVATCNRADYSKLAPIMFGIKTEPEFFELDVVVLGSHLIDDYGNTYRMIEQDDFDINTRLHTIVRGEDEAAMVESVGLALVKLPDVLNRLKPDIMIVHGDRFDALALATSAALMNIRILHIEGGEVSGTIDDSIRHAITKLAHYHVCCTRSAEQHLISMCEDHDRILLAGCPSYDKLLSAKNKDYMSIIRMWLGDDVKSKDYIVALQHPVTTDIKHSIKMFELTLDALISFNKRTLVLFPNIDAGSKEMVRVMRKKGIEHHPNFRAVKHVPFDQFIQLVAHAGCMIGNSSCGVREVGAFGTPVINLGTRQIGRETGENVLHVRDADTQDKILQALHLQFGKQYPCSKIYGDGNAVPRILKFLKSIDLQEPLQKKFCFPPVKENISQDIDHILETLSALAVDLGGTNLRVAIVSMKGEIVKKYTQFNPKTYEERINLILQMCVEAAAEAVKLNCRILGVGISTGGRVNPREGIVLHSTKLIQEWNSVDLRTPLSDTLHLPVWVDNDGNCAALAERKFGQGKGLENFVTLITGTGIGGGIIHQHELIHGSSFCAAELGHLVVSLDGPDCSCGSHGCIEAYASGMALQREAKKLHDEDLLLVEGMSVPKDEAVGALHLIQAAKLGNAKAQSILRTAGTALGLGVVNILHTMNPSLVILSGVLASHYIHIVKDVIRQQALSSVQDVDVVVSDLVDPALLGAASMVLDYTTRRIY
UniProt O14653: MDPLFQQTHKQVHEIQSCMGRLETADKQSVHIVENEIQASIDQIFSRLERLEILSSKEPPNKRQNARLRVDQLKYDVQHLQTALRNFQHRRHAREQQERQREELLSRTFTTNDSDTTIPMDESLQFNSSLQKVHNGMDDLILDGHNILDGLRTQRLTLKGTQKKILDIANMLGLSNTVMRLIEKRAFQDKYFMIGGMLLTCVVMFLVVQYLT
UniProt Q7Z5G4, whole entry, looked up: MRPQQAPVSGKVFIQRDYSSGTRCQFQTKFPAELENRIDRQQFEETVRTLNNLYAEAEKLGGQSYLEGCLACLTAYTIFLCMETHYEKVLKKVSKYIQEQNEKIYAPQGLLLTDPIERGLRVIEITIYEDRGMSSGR

ibrutinib = compound: C=CC(=O)N1CCC[C@@H](n2nc(-c3ccc(Oc4ccccc4)cc3)c3c(N)ncnc32)C1 [ibrutinib]
Procedure, shortened: as §1

[1] = compound: CC(=O)c1cnc2ccc(-c3cc(Cl)c(O)c(Cl)c3)nc2c1N[C@H]1CC[C@H](CN(C)C)CC1
Procedure, shortened: as §1

ralimetinib = compound: CC(C)(C)Cn1c(N)nc2ccc(-c3[nH]c(C(C)(C)C)nc3-c3ccc(F)cc3)nc21 [ralimetinib]
Procedure, shortened: as §1

[2] = compound: CC(C)(O)CC(=O)NCCn1ccc2ncnc(Nc3ccc(Oc4cccc(C(F)(F)F)c4)c(Cl)c3)c21
Procedure, shortened: as §1

[3] = compound: CC(C)C1=C2N=C(C=C(N2N=C1)NCC3=CC=CC=C3)NCCCCCCN
Procedure, shortened: as §1

[4] = compound: CC(C)C[C@@H](C=O)NC(=O)[C@H](CC(C)C)NC(=O)[C@H](CC(C)C)NC(=O)OCc1ccccc1
Procedure, shortened: as §1

pinometostat = compound: CC(C)N(C[C@H]1O[C@@H](n2cnc3c(N)ncnc32)[C@H](O)[C@@H]1O)[C@H]1C[C@@H](CCc2nc3cc(C(C)(C)C)ccc3[nH]2)C1 [pinometostat]
Procedure, shortened: as §1

[5] = compound: CC1=C(C(CC(=O)N1)C2=CC=C(C=C2)C(F)(F)F)C(=O)NC3=C(C=C4C(=C3)C=NN4)F
Procedure, shortened: as §1

[6] = compound: CC1=C(C2=C(C=C1)C(=O)C3=CC=CC=C3N2CCCN)C
Procedure, shortened: as §1

[7] = compound: CC1=C(C=C(C=C1)NC(=O)C2=CC(=CC=C2)C(C)(C)C#N)NC3=CC4=C(C=C3)N=CN(C4=O)C
Procedure, shortened: as §1

[8] = compound: CC1=C(C=C(C=C1)NC(=O)C2=CC(=CC=C2)N(C)C)NC(=O)C3=CC=C(C=C3)O
Procedure, shortened: as §1

[9] = compound: CC1=CC=C(C=C1)SC2=C3C=C(SC3=CN=C2)C(=O)N
Procedure, shortened: as §1

[10] = compound: CC1=NC(=CC=C1)C2=C(N=C(N2)C(C)(C)C)C3=CC4=NC=CN=C4C=C3
Procedure, shortened: as §1

Nexturastat A = compound: CCCCN(Cc1ccc(C(=O)NO)cc1)C(=O)Nc1ccccc1 [Nexturastat A]
Procedure, shortened: as §1

vemurafenib = compound: CCCS(=O)(=O)Nc1ccc(F)c(C(=O)c2c[nH]c3ncc(-c4ccc(Cl)cc4)cc23)c1F [vemurafenib]
Procedure, shortened: as §1

[11] = compound: CCCS(=O)(=O)Nc1ccc(F)c(C(=O)c2c[nH]c3ncc(Cl)cc23)c1F
Procedure, shortened: as §1

[12] = compound: CCCc1cc(C)[nH]c(=O)c1CNC(=O)c1cc(-c2ccnc(N3CCN(C)CC3)c2)cc2c1cnn2C(C)C
Procedure, shortened: as §1

givinostat = compound: CCN(CC)Cc1ccc2cc(COC(=O)Nc3ccc(C(=O)NO)cc3)ccc2c1 [givinostat]
Procedure, shortened: as §1

barasertib = compound: CCN(CCCOc1ccc2c(Nc3cc(CC(=O)Nc4cccc(F)c4)[nH]n3)ncnc2c1)CCOP(=O)(O)O [barasertib]
Procedure, shortened: as §1

Measured: log2 fold change

GRAP2 (UniProt O75791)
inactive: IRAK-1-4 Inhibitor I -0.027 | ibrutinib 0.078 | [1] -0.191 | ralimetinib 0.018 | [2] 0.011 | [3] -0.138 | [4] 0.13 | pinometostat 0.119 | [5] 0.064 | [6] -0.041 | [7] -0.183 | [8] -0.082 | [9] 0.014 | [10] -0.07 | Nexturastat A 0.067 | vemurafenib 0.069 | [11] 0.049 | [12] 0.087 | givinostat 0.156 | barasertib 0.046

GOLGA5 (UniProt Q8TBA6)
inactive: IRAK-1-4 Inhibitor I 0.001 | ibrutinib 0.057 | [1] -0.083 | ralimetinib -0.039 | [2] 0.006 | [3] 0.131 | [4] -0.008 | pinometostat -0.017 | [5] -0.052 | [6] 0.04 | [7] -0.028 | [8] -0.033 | [9] 0.002 | [10] 0.021 | Nexturastat A 0.02 | vemurafenib 0.005 | [11] 0.012 | [12] 0.024 | givinostat -0.031 | barasertib 0.056

GLRX2 isoform 2 (UniProt Q9NS18)
inactive: IRAK-1-4 Inhibitor I 0.007 | ibrutinib 0.021 | [1] 0.046 | ralimetinib -0.019 | [2] -0.32 | [3] 0.124 | [4] -0.016 | pinometostat -0.055 | [5] -0.126 | [6] -0.017 | [7] 0.085 | [8] -0.04 | [9] 0.177 | [10] 0.04 | Nexturastat A -0.025 | vemurafenib 0.037 | [11] -0.171 | [12] 0.17 | givinostat -0.055 | barasertib -0.054

GPKOW (UniProt Q92917)
inactive: IRAK-1-4 Inhibitor I -0.016 | ibrutinib -0.005 | [1] -0.172 | ralimetinib -0.08 | [2] -0.026 | [3] -0.184 | [4] 0.006 | pinometostat 0.047 | [6] 0.056 | [7] 0.053 | [8] -0.033 | [9] 0.062 | [10] 0.055 | Nexturastat A -0.106 | vemurafenib 0.009 | [11] 0.07 | [12] -0.058 | givinostat 0.084 | barasertib 0.027

GPAT3 (UniProt Q53EU6)
inactive: IRAK-1-4 Inhibitor I 0.028 | ibrutinib -0.057 | [1] -0.059 | ralimetinib -0.016 | [2] 0.02 | [3] 0.131 | [4] -0.034 | pinometostat -0.039 | [5] -0.134 | [6] 0.008 | [7] -0.023 | [8] 0.064 | [9] -0.026 | [10] -0.015 | Nexturastat A 0.082 | vemurafenib 0.012 | [11] 0.005 | [12] -0.023 | givinostat 0.039 | barasertib 0.061

GRIPAP1 (UniProt Q4V328)
inactive: IRAK-1-4 Inhibitor I -0.026 | ibrutinib -0.043 | [1] 0.11 | ralimetinib 0.104 | [2] 0.026 | [3] -0.021 | [4] -0.032 | pinometostat -0.011 | [5] -0.071 | [6] -0.152 | [7] 0.011 | [8] 0.011 | [9] 0.012 | [10] 0.016 | Nexturastat A 0.03 | vemurafenib 0.036 | [11] 0.094 | [12] 0.045 | givinostat -0.005 | barasertib 0.032

GMPR2 isoform 2 (UniProt Q9P2T1)
inactive: IRAK-1-4 Inhibitor I 0.008 | ibrutinib 0.022 | [1] 0.043 | ralimetinib -0.005 | [2] 0.001 | [3] 0.081 | [4] -0.029 | pinometostat -0.049 | [5] 0.009 | [6] 0.001 | [7] -0.032 | [8] -0.019 | [9] 0.003 | [10] 0.02 | Nexturastat A -0.098 | vemurafenib -0.03 | [11] -0.013 | [12] -0.034 | givinostat -0.041 | barasertib -0.01

GRN (UniProt P28799)
inactive: IRAK-1-4 Inhibitor I 0.077 | ibrutinib -0.031 | [1] -0.049 | ralimetinib 0.072 | [2] 0.003 | [3] 0.115 | [4] 0.03 | pinometostat -0.027 | [5] -0.09 | [6] 0.021 | [7] 0.012 | [8] 0.052 | [9] -0.07 | [10] -0.007 | Nexturastat A -0.064 | vemurafenib 0.019 | [11] -0.115 | [12] 0.035 | givinostat -0.092 | barasertib -0.112

GNAI2 isoform 4 (UniProt P04899)
inactive: IRAK-1-4 Inhibitor I -0.01 | ibrutinib 0.042 | [1] 0.015 | ralimetinib 0.015 | [2] 0.061 | [3] 0.016 | [4] 0.016 | pinometostat -0.002 | [5] -0.043 | [6] 0.022 | [7] 0.122 | [8] 0.002 | [9] -0.032 | [10] -0.046 | Nexturastat A -0.022 | vemurafenib 0.043 | [11] 0.021 | [12] 0.029 | givinostat -0.161 | barasertib -0.047

GK (UniProt P32189)
inactive: IRAK-1-4 Inhibitor I 0.015 | ibrutinib 0.043 | [1] 0.021 | ralimetinib -0.029 | [2] 0.021 | [3] 0.031 | [4] -0.022 | pinometostat -0.021 | [5] -0.018 | [6] 0.009 | [7] -0.033 | [8] 0.177 | [9] -0.013 | [10] -0.01 | Nexturastat A -0.089 | vemurafenib -0.011 | [11] -0.066 | [12] -0.012 | givinostat -0.021 | barasertib 0.009

GNB4 (UniProt Q9HAV0)
inactive: IRAK-1-4 Inhibitor I 0.066 | ibrutinib 0.209 | [1] 0.061 | ralimetinib 0.028 | [2] -0.008 | [3] 0.094 | [4] -0.025 | pinometostat 0.036 | [5] 0.04 | [6] -0.014 | [7] -0.097 | [8] -0.161 | [9] -0.033 | [10] -0.049 | Nexturastat A 0.033 | vemurafenib 0.035 | [11] -0.073 | [12] -0.017 | givinostat -0.129 | barasertib 0.032

Quoted at random: two records from the list, in no set order.
GPKOW (UniProt Q92917)
inactive: IRAK-1-4 Inhibitor I -0.016 | ibrutinib -0.005 | [1] -0.172 | ralimetinib -0.08 | [2] -0.026 | [3] -0.184 | [4] 0.006 | pinometostat 0.047 | [6] 0.056 | [7] 0.053 | [8] -0.033 | [9] 0.062 | [10] 0.055 | Nexturastat A -0.106 | vemurafenib 0.009 | [11] 0.07 | [12] -0.058 | givinostat 0.084 | barasertib 0.027

GPAT3 (UniProt Q53EU6)
inactive: IRAK-1-4 Inhibitor I 0.028 | ibrutinib -0.057 | [1] -0.059 | ralimetinib -0.016 | [2] 0.02 | [3] 0.131 | [4] -0.034 | pinometostat -0.039 | [5] -0.134 | [6] 0.008 | [7] -0.023 | [8] 0.064 | [9] -0.026 | [10] -0.015 | Nexturastat A 0.082 | vemurafenib 0.012 | [11] 0.005 | [12] -0.023 | givinostat 0.039 | barasertib 0.061

Remaining list, next part

GOLIM4 (UniProt O00461)
inactive: IRAK-1-4 Inhibitor I 0.024 | ibrutinib 0.004 | [1] -0.005 | ralimetinib -0.017 | [2] 0.046 | [3] -0.029 | [4] -0.053 | pinometostat -0.012 | [5] -0.021 | [6] 0.005 | [7] 0.038 | [8] 0.005 | [9] 0.005 | [10] 0.027 | Nexturastat A -0.046 | vemurafenib -0.029 | [11] 0.017 | [12] -0.025 | givinostat -0.004 | barasertib -0.021

GNA13 (UniProt Q14344)
inactive: IRAK-1-4 Inhibitor I 0.057 | ibrutinib -0.045 | [1] -0.105 | ralimetinib -0.02 | [2] 0.01 | [3] 0.162 | [4] 0.012 | pinometostat -0.028 | [5] -0.023 | [6] 0.086 | [7] 0.01 | [8] 0 | [9] -0.015 | [10] -0.001 | Nexturastat A -0.014 | vemurafenib 0.015 | [11] -0.006 | [12] 0.028 | givinostat 0.001 | barasertib 0.006

GNE isoform 2 (UniProt Q9Y223)
inactive: IRAK-1-4 Inhibitor I 0.016 | ibrutinib -0.019 | [1] 0.079 | ralimetinib -0.055 | [2] -0.145 | [3] 0.004 | [4] 0.049 | pinometostat 0.002 | [5] -0.044 | [6] 0.21 | [7] -0.016 | [8] 0.057 | [9] -0.079 | [10] 0.026 | Nexturastat A -0.129 | vemurafenib 0.009 | [11] 0.003 | [12] -0.06 | givinostat -0.003 | barasertib 0.008

GOSR2 isoform 2 (UniProt O14653)
inactive: IRAK-1-4 Inhibitor I -0.019 | ibrutinib -0.036 | [1] 0.062 | ralimetinib -0.045 | [3] -0.124 | [4] -0.04 | pinometostat -0.088 | [5] -0.084 | [6] 0.052 | [7] -0.017 | [8] -0.058 | [9] 0.135 | [10] 0.073 | vemurafenib 0.034 | [11] 0.113 | [12] -0.044 | givinostat 0.014 | barasertib 0.029

GOLGA7 (UniProt Q7Z5G4)
inactive: IRAK-1-4 Inhibitor I 0.04 | ibrutinib -0.017 | [1] -0.111 | [2] -0.126 | [3] 0.018 | pinometostat 0.021 | [5] -0.028 | [6] 0.091 | [7] -0.013 | [9] 0.024 | [10] 0.035 | Nexturastat A -0.046 | vemurafenib 0.063 | [11] -0.077 | [12] -0.074 | givinostat -0.065 | barasertib -0.015

Reference: the supplement of paper PMC10849652
